Data reported in paper PMC5617834.
Results are given in words; binding and its absence hold for the method and conditions named. Binding seen in cells or lysates may run through a third protein. Some results given as binding are weak or reduced against the parent protein; the word gives no strength. Where a sequence is shown, tags or fusion partners need not be part of it.

The chains behind the UniProt entries cited, without tags or fusion partners.
UniProt Q96J02: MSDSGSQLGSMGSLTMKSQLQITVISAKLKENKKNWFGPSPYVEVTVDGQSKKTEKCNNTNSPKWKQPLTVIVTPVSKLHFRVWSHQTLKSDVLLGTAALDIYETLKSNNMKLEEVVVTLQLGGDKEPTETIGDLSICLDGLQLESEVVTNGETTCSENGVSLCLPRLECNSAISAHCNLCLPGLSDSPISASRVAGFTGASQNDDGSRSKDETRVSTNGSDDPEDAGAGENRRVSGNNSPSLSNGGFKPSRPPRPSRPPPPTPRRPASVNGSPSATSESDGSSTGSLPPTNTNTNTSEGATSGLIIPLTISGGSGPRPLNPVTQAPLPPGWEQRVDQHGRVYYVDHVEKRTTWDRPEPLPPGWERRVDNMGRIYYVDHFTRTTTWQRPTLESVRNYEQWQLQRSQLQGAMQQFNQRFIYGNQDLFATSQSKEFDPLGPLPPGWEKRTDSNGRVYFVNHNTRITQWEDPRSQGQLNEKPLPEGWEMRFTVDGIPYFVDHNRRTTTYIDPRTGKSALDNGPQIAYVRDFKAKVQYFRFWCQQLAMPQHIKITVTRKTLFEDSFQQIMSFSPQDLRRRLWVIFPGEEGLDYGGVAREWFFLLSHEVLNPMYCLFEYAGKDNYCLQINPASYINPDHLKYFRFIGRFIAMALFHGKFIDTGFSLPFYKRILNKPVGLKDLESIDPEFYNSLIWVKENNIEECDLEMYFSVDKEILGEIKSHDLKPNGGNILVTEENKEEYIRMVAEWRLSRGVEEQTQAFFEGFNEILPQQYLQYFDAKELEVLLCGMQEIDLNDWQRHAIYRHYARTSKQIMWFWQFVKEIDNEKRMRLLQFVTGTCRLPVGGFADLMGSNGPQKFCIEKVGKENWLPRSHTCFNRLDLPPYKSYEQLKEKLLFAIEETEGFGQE

Target: Flag-tagged ITCH (AIP4) E3 ligase (UniProt Q96J02)
Assay: co-IP; reverse direction: HEK293T cells co-transfected with Flag-ITCH and HA-ARRDC1 or ARRDC1-delPPXY; ITCH pulled down by anti-Flag antibody

binding: binds
B1: HA-tagged ARRDC1 (arrestin domain-containing protein 1) (protein, UniProt Q8N5I2 1-433)
chain: MGRVQLFEISLSHGRVVYSPGEPLAGTVRVRLGAPLPFRAIRVTCIGSCGVSNKANDTAWVVEEGYFNSSLSLADKGSLPAGEHSFPFQFLLPATAPTSFEGPFGKIVHQVRAAIHTPRFSKDHKCSLVFYILSPLNLNSIPDIEQPNVASATKKFSYKLVKTGSVVLTASTDLRGYVVGQALQLHADVENQSGKDTSPVVASLLQKVSYKAKRWIHDVRTIAEVEGAGVKAWRRAQWHEQILVPALPQSALPGCSLIHIDYYLQVSLKAPEATVTLPVFIGNIAVNHAPVSPRPGLGLPPGAPPLVVPSAPPQEEAEAEAAAGGPHFLDPVFLSTKSHSQRQPLLATLSSVPGAPEPCPQDGSPASHPLHPPLCISTGATVPYFAEGSGGPVPTTSTLILPPEYSSWGYPYEAPPSYEQSCGGVEPSLTPES
